Data on four sequences can be found in US20240124881.

Protein sequences, listed by entry. Tags and fused reporters are not part of them.
UniProt Q8CJG0, whole entry: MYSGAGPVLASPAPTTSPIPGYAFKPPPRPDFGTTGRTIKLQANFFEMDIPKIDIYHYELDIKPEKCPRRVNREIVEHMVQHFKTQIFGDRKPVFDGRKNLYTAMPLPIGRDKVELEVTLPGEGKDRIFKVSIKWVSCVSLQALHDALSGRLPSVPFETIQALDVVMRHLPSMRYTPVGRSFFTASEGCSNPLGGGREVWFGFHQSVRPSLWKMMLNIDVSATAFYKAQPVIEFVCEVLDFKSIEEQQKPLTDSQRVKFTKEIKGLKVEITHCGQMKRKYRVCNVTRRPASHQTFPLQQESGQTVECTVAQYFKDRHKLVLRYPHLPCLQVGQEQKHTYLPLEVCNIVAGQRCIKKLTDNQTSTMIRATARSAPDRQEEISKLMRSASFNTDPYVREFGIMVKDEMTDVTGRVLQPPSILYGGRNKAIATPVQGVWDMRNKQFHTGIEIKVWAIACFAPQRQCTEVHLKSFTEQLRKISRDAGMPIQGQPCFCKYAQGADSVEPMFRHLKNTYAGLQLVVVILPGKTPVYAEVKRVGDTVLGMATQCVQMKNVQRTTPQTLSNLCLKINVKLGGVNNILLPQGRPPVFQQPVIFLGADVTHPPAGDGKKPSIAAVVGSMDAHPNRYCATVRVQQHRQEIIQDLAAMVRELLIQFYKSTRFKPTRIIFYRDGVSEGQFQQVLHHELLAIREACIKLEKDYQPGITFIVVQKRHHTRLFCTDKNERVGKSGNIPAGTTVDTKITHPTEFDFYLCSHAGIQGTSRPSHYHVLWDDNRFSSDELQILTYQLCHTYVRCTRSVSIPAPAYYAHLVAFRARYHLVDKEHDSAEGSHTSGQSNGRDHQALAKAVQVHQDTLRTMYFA

For at least one entry, the source does not settle the construct or the ends of the probe. At least one result comes from cells or an extract, where the contact may be indirect. For some of these results: Protein sequences can lack the tags named with them.

Data set [1] has as its target Ago2 (Mus musculus) (UniProt Q8CJG0). Nature of the data set: binding assay. Particulars: CITED Ago2 CLIP, mouse brain; miR-153 guided; protein in cells; protein details: endogenous, mouse brain.
In data set [2] the target is T1, DHX36 (Mus musculus) (UniProt Q8VHK9).
T1 sequence (looked up, limits assumed): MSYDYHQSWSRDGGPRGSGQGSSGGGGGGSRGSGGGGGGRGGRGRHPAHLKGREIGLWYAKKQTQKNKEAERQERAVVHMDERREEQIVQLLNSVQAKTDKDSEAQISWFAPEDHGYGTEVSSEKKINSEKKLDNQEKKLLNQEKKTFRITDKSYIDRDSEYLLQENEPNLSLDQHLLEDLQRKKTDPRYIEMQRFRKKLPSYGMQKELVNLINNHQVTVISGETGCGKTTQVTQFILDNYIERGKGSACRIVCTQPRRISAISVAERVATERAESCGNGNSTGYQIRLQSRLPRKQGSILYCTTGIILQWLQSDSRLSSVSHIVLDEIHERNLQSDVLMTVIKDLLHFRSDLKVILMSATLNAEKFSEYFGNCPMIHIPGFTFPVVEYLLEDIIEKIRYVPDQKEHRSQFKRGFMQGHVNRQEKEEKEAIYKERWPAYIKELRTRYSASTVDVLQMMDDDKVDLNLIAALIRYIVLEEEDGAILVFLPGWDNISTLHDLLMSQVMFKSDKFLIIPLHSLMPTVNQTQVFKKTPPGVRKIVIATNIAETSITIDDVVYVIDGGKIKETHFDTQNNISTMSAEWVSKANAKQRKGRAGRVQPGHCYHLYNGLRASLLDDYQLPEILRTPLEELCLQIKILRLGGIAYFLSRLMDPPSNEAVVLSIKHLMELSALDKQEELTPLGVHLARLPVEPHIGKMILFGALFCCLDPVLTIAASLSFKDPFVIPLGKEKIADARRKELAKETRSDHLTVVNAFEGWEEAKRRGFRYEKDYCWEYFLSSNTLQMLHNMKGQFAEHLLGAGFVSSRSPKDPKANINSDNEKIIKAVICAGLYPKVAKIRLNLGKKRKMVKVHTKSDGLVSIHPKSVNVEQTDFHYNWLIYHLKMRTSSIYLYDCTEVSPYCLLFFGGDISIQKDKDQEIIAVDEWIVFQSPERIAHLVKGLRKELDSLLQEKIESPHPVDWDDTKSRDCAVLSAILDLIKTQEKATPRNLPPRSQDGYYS
Nature of the data set: pull-down. The settings on record: N2a lysate, mass spectrometry; highest enrichment versus mutated sequences; protein in an extract; protein details: endogenous, Neuro2a cell lysate; label: biotin (Biotin RNA labeling mix).

In data set [3] the target is T2, PUM2 (Homo sapiens) (UniProt Q8TB72).
T2 sequence (looked up, limits assumed): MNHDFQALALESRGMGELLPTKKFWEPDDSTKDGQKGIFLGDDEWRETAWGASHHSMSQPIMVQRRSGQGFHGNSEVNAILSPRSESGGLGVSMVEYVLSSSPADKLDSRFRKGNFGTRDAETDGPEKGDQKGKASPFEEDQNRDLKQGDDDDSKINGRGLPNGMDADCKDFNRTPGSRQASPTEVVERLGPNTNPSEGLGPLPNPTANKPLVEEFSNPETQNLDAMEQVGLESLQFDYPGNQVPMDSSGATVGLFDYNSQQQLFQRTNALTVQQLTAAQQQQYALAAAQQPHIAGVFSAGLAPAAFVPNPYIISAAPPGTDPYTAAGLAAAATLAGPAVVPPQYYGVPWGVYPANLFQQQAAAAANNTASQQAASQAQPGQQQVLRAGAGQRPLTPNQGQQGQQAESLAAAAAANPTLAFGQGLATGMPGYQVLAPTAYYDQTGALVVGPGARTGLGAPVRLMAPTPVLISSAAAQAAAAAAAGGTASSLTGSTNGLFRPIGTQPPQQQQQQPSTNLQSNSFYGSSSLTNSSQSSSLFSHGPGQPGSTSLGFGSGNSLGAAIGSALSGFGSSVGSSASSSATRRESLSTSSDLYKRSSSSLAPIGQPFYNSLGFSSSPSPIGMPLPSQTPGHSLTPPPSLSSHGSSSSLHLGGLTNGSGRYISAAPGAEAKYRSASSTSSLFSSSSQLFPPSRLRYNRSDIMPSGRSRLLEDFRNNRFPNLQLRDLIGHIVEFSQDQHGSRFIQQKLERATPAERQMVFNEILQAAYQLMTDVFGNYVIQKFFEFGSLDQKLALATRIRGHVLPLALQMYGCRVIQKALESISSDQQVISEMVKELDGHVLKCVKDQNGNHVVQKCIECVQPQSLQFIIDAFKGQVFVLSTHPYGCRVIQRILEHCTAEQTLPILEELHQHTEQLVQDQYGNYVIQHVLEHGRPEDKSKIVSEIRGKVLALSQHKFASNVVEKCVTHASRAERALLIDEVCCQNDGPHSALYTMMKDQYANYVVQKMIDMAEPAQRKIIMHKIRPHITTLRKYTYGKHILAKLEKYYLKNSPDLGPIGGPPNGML
The experiment in a line: binding assay. The settings on record: protein in cells, protein details: endogenous.

Data set [4] has as its target T3, PUM1 (Homo sapiens) (UniProt Q14671).
T3 sequence (looked up, limits assumed): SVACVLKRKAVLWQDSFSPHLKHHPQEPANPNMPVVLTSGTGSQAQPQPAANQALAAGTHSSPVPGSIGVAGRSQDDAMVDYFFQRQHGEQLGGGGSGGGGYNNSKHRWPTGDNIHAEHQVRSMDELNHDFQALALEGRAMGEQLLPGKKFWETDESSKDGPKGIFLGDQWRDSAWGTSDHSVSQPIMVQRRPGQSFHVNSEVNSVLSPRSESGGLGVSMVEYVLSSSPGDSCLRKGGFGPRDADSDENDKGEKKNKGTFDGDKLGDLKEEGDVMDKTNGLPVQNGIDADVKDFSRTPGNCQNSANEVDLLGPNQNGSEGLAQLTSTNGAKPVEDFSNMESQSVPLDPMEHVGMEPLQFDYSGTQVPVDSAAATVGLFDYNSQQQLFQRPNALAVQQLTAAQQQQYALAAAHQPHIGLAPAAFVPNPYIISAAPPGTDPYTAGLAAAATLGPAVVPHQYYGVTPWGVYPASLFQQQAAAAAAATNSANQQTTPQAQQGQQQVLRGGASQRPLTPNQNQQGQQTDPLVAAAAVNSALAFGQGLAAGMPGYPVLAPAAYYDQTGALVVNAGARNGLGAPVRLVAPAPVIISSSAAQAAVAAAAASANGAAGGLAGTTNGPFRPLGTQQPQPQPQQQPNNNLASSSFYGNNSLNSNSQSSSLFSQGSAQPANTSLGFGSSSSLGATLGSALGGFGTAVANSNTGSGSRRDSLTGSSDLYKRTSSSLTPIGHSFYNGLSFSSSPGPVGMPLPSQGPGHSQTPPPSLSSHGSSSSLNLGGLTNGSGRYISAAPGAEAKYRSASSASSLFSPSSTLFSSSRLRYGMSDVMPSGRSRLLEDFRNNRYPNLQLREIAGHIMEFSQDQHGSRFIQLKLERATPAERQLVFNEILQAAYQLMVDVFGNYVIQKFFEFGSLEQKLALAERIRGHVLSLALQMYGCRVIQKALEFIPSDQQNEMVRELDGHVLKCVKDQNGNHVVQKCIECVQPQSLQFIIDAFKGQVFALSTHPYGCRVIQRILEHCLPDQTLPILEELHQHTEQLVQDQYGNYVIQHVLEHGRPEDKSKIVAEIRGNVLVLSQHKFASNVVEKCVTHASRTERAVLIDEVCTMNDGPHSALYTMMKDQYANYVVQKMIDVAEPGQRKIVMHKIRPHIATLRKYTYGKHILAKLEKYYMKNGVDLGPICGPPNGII
The experiment in a line: binding assay. Particulars: protein in cells, protein details: endogenous.

Data set [5] deals with Pum1/2 (Mus musculus). The experiment in a line: binding assay. Particulars: CITED mouse CLIP data; protein in cells; protein details: endogenous.
Where [6] appears, read: CITED ENCODE CLIP data, K562 and HCT116.

Regarding CUAUGCA [Cyrano miR-153 site region], the binding result in data set [1] was “binds”. With “CACCCCGCUUGAAGAGUUUGAAAUGGACUUUACCACUGAGAAAUCAAGAUGGCAGCCCAUUAUGGGGAAUUGAGGAAAAUGGAUUAAUGCAAGAAUGCUGUAAUAUUAUACAACCAACACAGGAUUCUUUUAAUGUGGAUUCCAUGAAAUGAAUGAUUCUUACCCAACACAAAUGGACAGUGGAAUUUACUUCCUAAAGACUUGUUACAUGUCAUGUACAUUUUUGACAUCUGGAGAAGACUCUACAAUUCUACAAAUGGUAGUUUGUAUUCCUGGAAUUUCUUGCAGUUUGAUCUGAAGUGACCUUAUGGAAUGUUAACUUUAAUAAAAU [Chaserr Exon5-WT]”, the binding result in data set [2] is “binds”. UGUACAUU [PUM1/PUM2 3'UTR motif]: the binding result in data set [3] (CITED ENCODE data) and in data set [4] (CITED ENCODE data) was “binds” each time. Regarding UGUAUAG [Cyrano PRE element 6], the binding result in data set [3] (setting [6]), in data set [4] (setting [6]) and in data set [5] was “binds” each time.
